Drawing on PubChem BioAssay AID2685 (National Center for Advancing Translational Sciences (NCATS), 2010), this text covers AC50 and cell number change for 56 molecules.

The assay is described as follows: qHTS Assay for Lipid Storage Modulators in Drosophila S3 Cells.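 On cell number change: cells counted by Cell Tracker Red CMTPX staining in the red channel.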 Conditions: BODIPY lipid droplet fluorescence, 18-24 h; for cell number change: measured here: cell count max response, cells fed with added oleic acid. Put shortly: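 Laser-scanning cytometry quantifies lipid droplet accumulation (500–530 nm total intensity; droplet/cell object ratio) in oleic acid-fed (400 uM added) Drosophila S3 cells treated with a concentration series. 20 uM Triacsin C defined 100% inhibition.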

The mark [1] stands for this setting: measured here: cell number channel AC50, cells fed with added oleic acid.
Setting [2] is: measured here: lipid fluorescence (Fed channel) AC50, cells fed with added oleic acid.

What is called AC50 is the concentration giving half of the maximal activity seen. The low end stands for activity at low concentration, the high end for activity only at high concentration.

The structures appear in SMILES notation. The list shows a part of the results. Shown are side measurements of this screen, not its main read-out; they come without a call. The list favours compounds with an active or inconclusive main result. Potencies come from curve fits of mixed quality, noted in brackets.

Regarding `CC(C)OP(=O)(c1ccc(N(C)C)cc1)C(O)c1ccncc1` (stereo not drawn), under setting [1], the AC50 is 1.84 µM [rising, partial curve].
Consider `C=CCN1C(=O)NC(=O)/C(=C/C=C/c2ccccc2)C1=O`, for which the cell number change was -63%. In addition, under setting [1], the half-maximal activity concentration (AC50) was 23.1 µM [falling, single point]. The AC50 under setting [2] was 29.1 µM [falling, single point].
On to `Cc1ccc(C(O)P(=O)(Oc2ccccc2)Oc2ccccc2)cc1` (stereo not drawn), for which the cell number change worked out at 7.33%. For the same molecule, the AC50 under setting [2] is 0.0231 µM [falling, full curve, poor fit].
As to `COC(=O)c1ccccc1OP1(=O)COc2ccccc2OC1`, the cell number change is -23.2%. Under setting [2], the concentration at half-maximal activity (AC50) is 2.59 µM [falling, full curve].
Take `COc1ccc(Cn2c(O)c(/C=N/NC(=O)c3ccccc3)c(=O)[nH]c2=O)cc1`: the cell number change was 10.7%. Further, under setting [2], the AC50 is 0.291 µM [rising, full curve].
Take `COc1ccccc1N1CCN(CCc2ccccc2)CC1`: the cell number change was -3.45%. Moreover, under setting [2], the half-maximal activity concentration (AC50) was 4.61 µM [rising, single point].
With `c1ccc(NC2=NCCS2)cc1`, the cell number change came to 13.7%.
Turning to `Cc1cc(=O)oc2c(C)c(OCC(=O)N3CCC(C(=O)O)(c4ccccc4)CC3)ccc12`, the cell number change is 9.46%. Moreover, under setting [2], the AC50 was 3.26 µM [falling, partial curve].
`COc1cccc(N2C(=O)CC(=O)NC2=O)c1`: the cell number change was -26.5%. The half-maximal activity concentration (AC50) under setting [2] was 0.517 µM [falling, full curve].
`CCOC(=O)c1c(-n2c(C)cc(C=C3C(=O)NC(=S)NC3=O)c2C)sc2c1CCCC2`: the AC50 under setting [2] was 29.1 µM [falling, partial curve].
Turning to `CCOc1ccccc1-n1c(O)c(C=NCc2ccc3c(c2)OCO3)c(=O)[nH]c1=O`, the cell number change is 4.1%. Besides, the AC50 under setting [2] was 4.61 µM [rising, single point].
As to `CCN1CCN(C(=O)Cc2coc3ccc4ccccc4c23)CC1`, the cell number change was 30.6%. The AC50 under setting [1] was 29.1 µM [rising, single point].
As to `COc1ccccc1-n1c(/C=C/c2ccccn2)nc2ccccc2c1=O`, the cell number change was found to be 19.6%. For the same molecule, under setting [2], the AC50 is 5.8 µM [rising, partial curve].
As to `Cn1c(O)c(C=NCCOc2ccc(Cl)cc2)c(=O)n(C)c1=O`, the cell number change was found to be 41.6%. Moreover, the AC50 under setting [1] was 25.9 µM [rising, single point].
As for `CCOC(=O)C1CCN(/C=C2/C(=O)NC(=S)N(c3cccc(OC)c3)C2=O)CC1`, the cell number change was -36.4%. Moreover, the AC50 under setting [1] is 18.4 µM [falling, single point]. In addition, the AC50 under setting [2] is 29.1 µM [falling, single point].
As to `CCn1c(O)c(C=Nc2ccc(S(N)(=O)=O)cc2)c(=O)[nH]c1=S`, the cell number change amounted to 63.5%. Under setting [1], the AC50 is 18.4 µM [rising, single point]. For the same molecule, the half-maximal activity concentration (AC50) under setting [2] is 29.1 µM [rising, single point].
Take `CN(C)C(CNC(=O)Cc1c(Cl)cccc1Cl)c1ccccc1` (stereo not drawn): the cell number change stood at 0.137%. Moreover, the AC50 under setting [2] is 0.231 µM [rising, full curve, poor fit].
On to `COc1ccc(OCC(=O)Nc2ccc(Cl)cc2C(=O)c2ccccc2)cc1`, for which the cell number change worked out at 1.81%. The AC50 under setting [2] is 29.1 µM [falling, single point].
Consider `COC(=O)C1=C(c2ccc(OCc3ccccc3)cc2)C[C@@H]2CC[C@H]1N2C(=O)NCc1cccc(OC)c1`, for which the cell number change is -6.14%.
Regarding `CCOc1ccc(N2C(=O)/C(=C/c3ccco3)C(=O)NC2=S)cc1`, the cell number change came out at 8.39%. The AC50 under setting [2] was 29.1 µM [rising, single point].
Take `Cc1cccc(C2=NCC(=O)N(CC(=O)NCc3ccco3)c3sc4c(c32)CCCC4)c1`: the AC50 runs as follows: under setting [1], 5.17 µM [falling, partial curve, poor fit]; under setting [2], 6.51 µM [falling, partial curve, poor fit].
For `COC(=O)C1=C(c2ccc(C(C)=O)cc2)C[C@@H]2CC[C@H]1N2C(=O)NCc1ccco1`, the cell number change was determined as 1.36%.
In the case of `Cc1nn(Cc2ccccc2)c(C)c1C=C1C(=O)NC(=O)NC1=O`, the cell number change was 55.9%. Under setting [1], the AC50 is 20.6 µM [rising, single point].
Regarding `Cc1nn(Cc2ccccc2Cl)c(Cl)c1C(=O)O`, the cell number change was 1.36%.
On to `CCOC(=O)C1=C(N)OC2=C(C(=O)CCC2)C12C(=O)N(C)c1ccccc12` (stereo not drawn), for which the cell number change was -28%. In addition, under setting [2], the AC50 is 29.1 µM [falling, partial curve, poor fit].
For the molecule `COCCNC(=O)N1[C@H]2CC[C@@H]1C(C(=O)OC)=C(c1ccc(OC)c(OC)c1)C2`, the cell number change was -5.29%. For the same molecule, the AC50 under setting [2] is 0.0326 µM [falling, partial curve, poor fit].
`O=S(=O)(c1ccc(O)cc1)c1ccc(O)cc1`: the cell number change amounted to 153%. Further, the AC50 under setting [1] was 29.1 µM [rising, single point]. Further, the AC50 under setting [2] was 29.1 µM [rising, single point].
As to `CN1CCN(c2ccc([N+](=O)[O-])c(NCc3ccco3)c2)CC1`, the cell number change was -31.4%. Further, the half-maximal activity concentration (AC50) under setting [1] is 3.26 µM [falling, partial curve, poor fit]. The concentration at half-maximal activity (AC50) under setting [2] is 16.4 µM [rising, single point].
On to `Oc1ccccc1-[n+]1c(-c2ccccc2)cc(-c2ccccc2)cc1-c1ccccc1`, for which the cell number change came out at 10.3%.
For the molecule `C[C@]12CC[C@H]3[C@@H](CCC4=CC(=O)CC[C@@]43O)[C@@H]1CCC2=O`, the cell number change worked out at 1.39%. Moreover, the AC50 under setting [2] is 29.1 µM [rising, single point].
For `C[C@@]1([C@@H](NP(=O)(c2ccccc2)c2ccccc2)c2ccccc2)C[C@H]1CCO`, the cell number change is -32%. Also, under setting [1], the AC50 was 29.1 µM [falling, partial curve]. Also, under setting [2], the AC50 was 32.6 µM [falling, partial curve, poor fit].
For the molecule `C=CCn1c(O)c(C(C)=NCCCO)c(=O)[nH]c1=O`, the cell number change is 6.46%. In addition, the AC50 under setting [2] is 20.6 µM [falling, partial curve].
For the molecule `O=C1NC(=O)N(c2ccccc2)C(=O)/C1=C/c1ccc(Sc2ccccc2)o1`, the cell number change is -43.2%. For the same molecule, the AC50 under setting [1] is 29.1 µM [falling, single point]. Further, the AC50 under setting [2] was 16.4 µM [falling, single point].
For `COc1cc2c(cc1OC)C(C(=O)N(C)C1CCCCC1)C1CCCCN1C2=O` (stereo not drawn), the cell number change was -41.7%. Moreover, the AC50 under setting [1] was 9.2 µM [falling, partial curve].
For the molecule `Fc1ccc(Cn2nnnc2C(c2ccc(F)cc2)N2CC=C(c3ccc(F)cc3)CC2)cc1` (stereo not drawn), the cell number change was 38.5%. Also, the concentration at half-maximal activity (AC50) under setting [1] is 6.51 µM [falling, single point]. Under setting [2], the AC50 was 4.61 µM [rising, full curve, poor fit].
On to `COC(=O)C1=C(c2ccc(OC)c(OC)c2)C[C@@H]2CC[C@H]1N2C(=O)NC1CC1`, for which the cell number change is -33.5%. Under setting [1], the AC50 was 16.4 µM [falling, partial curve]. Moreover, the AC50 under setting [2] was 2.06 µM [falling, full curve, poor fit].
In the case of `O=c1[nH]c(=O)n(C2CCCCC2)c(O)c1/C=N/N1CCCCC1c1cccnc1` (stereo not drawn), the cell number change amounted to 22.2%. The AC50 under setting [2] was 13 µM [rising, partial curve, poor fit].
Take `COc1ccc(/C=C2/C(=O)NC(=O)N(Cc3ccco3)C2=O)cc1`: the cell number change was -4.35%. Also, the AC50 under setting [2] is 6.51 µM [falling, single point].
As for `CC(C)CC12CN3CCN(CC(C3)C1O)C2` (stereo not drawn), the cell number change is -0.264%.
For `CCOc1cc2c(cc1OCC)-n1cccc1C(c1ccc(F)c(OC)c1)NC2` (stereo not drawn), the cell number change was -23.2%. Under setting [2], the AC50 was 29.1 µM [falling, single point].
For `Cc1ccc(-n2c(C)nc3cc(Cl)ccc3c2=O)nc1`, the cell number change came out at 20.4%.
With `CCOc1cccc(=NC2CCCCC2)c2c(C)[nH]c(C)c12`, the cell number change was -63.6%. Further, the half-maximal activity concentration (AC50) under setting [1] was 29.1 µM [falling, single point]. Also, the AC50 under setting [2] is 13 µM [falling, partial curve].
As for `CCCCC(=O)N/N=C/c1c(O)n(CC)c(=S)n(CC)c1=O`, the cell number change is -17.2%. In addition, the AC50 under setting [2] is 29.1 µM [falling, partial curve, poor fit].
With `COC(=O)c1nc(-c2ccc3c(n2)C(=O)C(N)=C(OC)C3=O)c(N)c(-c2ccc(OC)c(OC)c2O)c1C`, the cell number change was -44%. Moreover, under setting [1], the AC50 was 29.1 µM [falling, single point]. Under setting [2], the AC50 was 9.2 µM [falling, partial curve].
For `CCCCCCC(N)CC(=O)O` (stereo not drawn), the cell number change came to 6.72%. For the same molecule, the AC50 under setting [2] was 29.1 µM [falling, single point].
Turning to `COc1ccc(CNCCc2ccccc2F)c(OC)c1C`, the cell number change turned out to be 13.7%. Besides, the AC50 under setting [2] was 1.3 µM [rising, full curve].
For `CCCCn1c(O)c(C(CC)=Nc2ccc(OCC)cc2)c(=O)[nH]c1=O`, the cell number change is 6.56%.
As to `C/C(=N\N1CCCCCC1)c1c(O)n(-c2ccc(C)cc2)c(=O)[nH]c1=O`, the cell number change was -2.23%. Under setting [1], the AC50 is 4.11 µM [rising, single point].
As for `C=CCn1c(O)c(C(C)=Nc2cccc(C(F)(F)F)c2)c(=O)[nH]c1=O`, the cell number change is -16.2%. Further, under setting [2], the AC50 was 0.146 µM [falling, full curve, poor fit].
In the case of `CCOC(=O)c1c(C)n(Cc2ccccc2)c2ccc(OCC(O)Cn3nc(C)cc3C)cc12` (stereo not drawn), the cell number change worked out at 19.2%. Under setting [2], the AC50 is 6.51 µM [rising, single point].
Turning to `CC(C)Oc1cc(-n2c(=S)[nH]c3ccccc3c2=O)c(Cl)cc1Cl`, the cell number change was 10.1%. Moreover, the AC50 under setting [2] was 29.1 µM [falling, single point].
As for `O=C(C(=O)N1CCOCC1)c1cn(Cc2ccccc2F)c2ccccc12`, the cell number change turned out to be 1.08%. Also, the concentration at half-maximal activity (AC50) under setting [1] is 6.51 µM [rising, single point]. Also, the AC50 under setting [2] is 1.46 µM [rising, full curve, poor fit].
Turning to `Cn1c(=O)oc2cc(S(=O)(=O)N3CCc4ccccc4C3)ccc21`, the AC50 under setting [1] is 0.146 µM [rising, full curve, poor fit].
As to `C[C@]12CC[C@H](O)C[C@H]1CC[C@@H]1C2CC[C@]2(C)[C@@H](C3=CC(=O)OC3)[C@@H](O)C[C@]12O` (stereo partly drawn), the cell number change is -2.65%. In addition, the AC50 under setting [2] was 0.58 µM [rising, single point].
Turning to `COc1ccc(N=Cc2c(O)n(C)c(=O)n(C)c2=O)cc1`, the AC50 under setting [2] is 5.8 µM [rising, partial curve, poor fit].
With `Clc1ccc(CSC(Cn2ccnc2)c2ccc(Cl)cc2Cl)cc1` (stereo not drawn), the cell number change is -73.4%. The AC50 under setting [1] was 29.1 µM [falling, partial curve, poor fit]. Moreover, under setting [2], the AC50 was 29.1 µM [falling, single point].
